Measurements from PubChem BioAssay AID248 (DTP/NCI, 2004).
The list shows only some results of the screen, not a fair sample: it covers a few groups of compounds. Other doses and runs of a compound may be missing. T/C gives the treated animals as a percentage of the vehicle group. Some entries give survivors of the animals treated and no T/C: the source files T/C as zero there, which appears to mark a toxic dose or a test without result, not a measured value. Some survivor counts are full or nearly so, which does not show that the dose was tolerated: the source hardly ever lists a survival T/C far under the control, and the zero likely stands for such cases as well. Survivors were counted at the toxicity check, usually on the fifth day, unless a day is given; later deaths do not show. Schedule codes are those of the source, taken here to give the interval after Q, in days (D) or hours (H), and the number of doses after X. Some schedules carry Z or #; the key to these is not given. For survival time, the PubChem record calls one and a half times the control and up active, and a quarter to a half above the control has no call in these data; cut-offs in other NCI protocols can differ. Some entries were tested several times; the values are given in rising order. Some T/C values carry the count of animals alive at the toxicity check (mostly the fifth day); without a count or a note in brackets, all were alive then. Some T/C values are marked as having no survivor count here; that says nothing about deaths at the dose.

System: L1210 leukemia ip in BDF1 mice, survival T/C
Test: NCI In Vivo Anticancer Drug Screen. Data for tumor model L1210 Leukemia (intraperitoneal) in B6D2F1 (BDF1) mice
Settings: T/C endpoint: mean survival time, higher T/C = longer survival
[1] = dose: 50.0 mg/kg/injection, schedule: Q01DX001 (ip), vehicle: carboxymethylcellulose (CMC)
[2] = dose: 100.0 mg/kg/injection, schedule: Q01DX001 (ip), vehicle: carboxymethylcellulose (CMC)
[3] = dose: 100.0 mg/kg/injection, schedule: Q01DX009 (ip), vehicle: other
[4] = dose: 100.0 mg/kg/injection, schedule: Q04DX003 (ip), vehicle: Klucel (hydroxypropylcellulose) (HPC)
[5] = dose: 180.0 mg/kg/injection, schedule: Q01DX Z (ip), vehicle: methylcellulose (MC)
[6] = dose: 200.0 mg/kg/injection, schedule: Q01DX001 (ip), vehicle: carboxymethylcellulose (CMC)
[7] = dose: 200.0 mg/kg/injection, schedule: Q04DX003 (ip), vehicle: Klucel (hydroxypropylcellulose) (HPC)
[8] = dose: 200.0 mg/kg/injection, schedule: Q04DX003 (ip), vehicle: saline with Tween-80
[9] = dose: 400.0 mg/kg/injection, schedule: Q01DX001 (ip), vehicle: carboxymethylcellulose (CMC)
[10] = dose: 400.0 mg/kg/injection, schedule: Q04DX003 (ip), vehicle: Klucel (hydroxypropylcellulose) (HPC)
[11] = dose: 100.0 mg/kg/injection, schedule: Q01DX001 (ip), vehicle: saline
[12] = dose: 200.0 mg/kg/injection, schedule: Q01DX001 (ip), vehicle: saline
[13] = dose: 12.5 mg/kg/injection, schedule: Q01DX009 (ip), vehicle: saline
[14] = dose: 25.0 mg/kg/injection, schedule: Q01DX009 (ip), vehicle: saline
[15] = dose: 25.0 mg/kg/injection, schedule: Q04DX003 (ip), vehicle: saline
[16] = dose: 50.0 mg/kg/injection, schedule: Q01DX009 (ip), vehicle: saline
[17] = dose: 50.0 mg/kg/injection, schedule: Q04DX003 (ip), vehicle: saline
[18] = dose: 100.0 mg/kg/injection, schedule: Q04DX003 (ip), vehicle: saline
[19] = dose: 200.0 mg/kg/injection, schedule: Q04DX003 (ip), vehicle: saline
[20] = dose: 400.0 mg/kg/injection, schedule: Q04DX003 (ip), vehicle: saline
[21] = dose: 100.0 mg/kg/injection, schedule: Q01DX009 (ip), vehicle: saline
[22] = dose: 200.0 mg/kg/injection, schedule: Q01DX009 (ip), vehicle: saline

CCOC(=O)COc1cccc(N(CCCl)CCCl)c1
T/C (dose: 33.0 mg/kg/injection, schedule: Q01DX009 (ip), vehicle: other): 101 % of control [5 of 6 alive] | T/C [1]: 113 % of control | T/C (dose: 50.0 mg/kg/injection, schedule: Q01DX009 (ip), vehicle: other): 104 and 118 % of control | T/C (dose: 53.0 mg/kg/injection, schedule: Q01DX Z (ip), vehicle: methylcellulose (MC)): 108 % of control | T/C (dose: 66.0 mg/kg/injection, schedule: Q01DX009 (ip), vehicle: other): 119 % of control | T/C (dose: 75.0 mg/kg/injection, schedule: Q01DX009 (ip), vehicle: other): 104 % of control | T/C (dose: 80.0 mg/kg/injection, schedule: Q01DX Z (ip), vehicle: methylcellulose (MC)): 94 and 102 % of control | T/C (dose: 88.0 mg/kg/injection, schedule: Q04DX003 (ip), vehicle: saline with Tween-80): 102 % of control | T/C [2]: 104 % of control | T/C [3]: 127 % of control | survivor count [3]: 3 of 6 | T/C [4]: 100 % of control | T/C (dose: 120.0 mg/kg/injection, schedule: Q01DX Z (ip), vehicle: methylcellulose (MC)): 93 and 108 % of control [5 of 6 alive] | T/C (dose: 132.0 mg/kg/injection, schedule: Q04DX003 (ip), vehicle: saline with Tween-80): 105 % of control | T/C (dose: 150.0 mg/kg/injection, schedule: Q01DX009 (ip), vehicle: other): 136 % of control [5 of 6 alive] | T/C [5]: 117 % of control | survivor count [5]: 6 of 7 | T/C [6]: 109 % of control | T/C (dose: 200.0 mg/kg/injection, schedule: Q01DX009 (ip), vehicle: other): 93 % of control | T/C [7]: 125 % of control | T/C [8]: 105 % of control | survivor count (dose: 270.0 mg/kg/injection, schedule: Q01DX Z (ip), vehicle: methylcellulose (MC)): 0 of 7 | T/C (dose: 300.0 mg/kg/injection, schedule: Q04DX003 (ip), vehicle: saline with Tween-80): 117 % of control | T/C [9]: 107 % of control | survivor count [10]: 5 of 6

CNC(=S)NNC(=O)NP(=O)(NC(=O)NNC(=S)NC)NC(=O)NNC(=S)NC
T/C [11]: 100 % of control | survivor count [12]: 2 of 4 | survivor count (dose: 400.0 mg/kg/injection, schedule: Q01DX001 (ip), vehicle: saline): 1 of 4

C[N+]1(Cc2ccccc2)CC12CCCCC2 (stereo not drawn)
T/C [13]: 100 % of control | T/C (dose: 12.5 mg/kg/injection, schedule: Q04DX003 (ip), vehicle: saline): 100 % of control | T/C [14]: 103 % of control | T/C [15]: 110 % of control | survivor count [16]: 4 of 6 | T/C [17]: 92 % of control | survivor count [18]: 0 of 6 | survivor count [19]: 0 of 6 | survivor count [20]: 0 of 6

CCC1([N+](=O)[O-])COP(=O)(Cl)OC1 (stereo not drawn)
T/C [1]: 111 % of control | T/C [2]: 98 % of control | T/C [6]: 109 % of control | survivor count [9]: 0 of 4

CN(C)[N+](=O)[O-]
T/C (dose: 80.0 mg/kg/injection, schedule: Q04DX003 (ip), vehicle: saline): 107 % of control [survivor count not shown] | T/C (dose: 160.0 mg/kg/injection, schedule: Q04DX003 (ip), vehicle: saline): 96 % of control [survivor count not shown] | T/C (dose: 320.0 mg/kg/injection, schedule: Q04DX003 (ip), vehicle: saline): 104 % of control [survivor count not shown]

O=P(Cl)(N1CCCC1)N1CCCC1
T/C (dose: 100.0 mg/kg/injection, schedule: Q04DX002 (ip), vehicle: saline with Tween-80): 103 % of control | T/C (dose: 200.0 mg/kg/injection, schedule: Q04DX002 (ip), vehicle: saline with Tween-80): 103 % of control | T/C (dose: 400.0 mg/kg/injection, schedule: Q04DX002 (ip), vehicle: saline with Tween-80): 100 % of control [2 of 3 alive]

CC(=O)OC(SC(OC(C)=O)C(Cl)(Cl)Cl)C(Cl)(Cl)Cl (stereo not drawn)
T/C (dose: 100.0 mg/kg/injection, schedule: Q01DX009 (ip), vehicle: gum acacia): 102 % of control | T/C (dose: 100.0 mg/kg/injection, schedule: Q04DX003 (ip), vehicle: gum acacia): 101 % of control | T/C (dose: 200.0 mg/kg/injection, schedule: Q01DX009 (ip), vehicle: gum acacia): 91 % of control | T/C (dose: 200.0 mg/kg/injection, schedule: Q04DX003 (ip), vehicle: gum acacia): 94 % of control | T/C (dose: 400.0 mg/kg/injection, schedule: Q01DX009 (ip), vehicle: gum acacia): 89 % of control [4 of 6 alive] | T/C (dose: 400.0 mg/kg/injection, schedule: Q04DX003 (ip), vehicle: gum acacia): 92 % of control

O=P(Cl)(Oc1ccccc1)N1CCCCC1 (stereo not drawn)
T/C (dose: 25.0 mg/kg/injection, schedule: Q04DX003 (ip), vehicle: Klucel (hydroxypropylcellulose) (HPC)): 106 % of control | T/C (dose: 50.0 mg/kg/injection, schedule: Q04DX003 (ip), vehicle: Klucel (hydroxypropylcellulose) (HPC)): 104 % of control | T/C [4]: 90 and 98 % of control | survivor count [7]: 0 of 6 | survivor count [10]: 0 of 6

CN1CCOS(=O)(=O)O1
T/C [16]: 92 % of control | T/C [21]: 92 % of control | T/C [22]: 92 % of control

[N-]=[N+]=NC(=N)N
T/C [11]: 102 % of control [survivor count not shown] | T/C [12]: 111 % of control [survivor count not shown]

CCOP(=O)(Nc1ccccn1)OCC
T/C (dose: 100.0 mg/kg/injection, schedule: Q04DX003 (ip), vehicle: saline with Tween-80): 91 % of control | T/C [8]: 94 % of control | T/C (dose: 400.0 mg/kg/injection, schedule: Q04DX003 (ip), vehicle: saline with Tween-80): 88 % of control

O=P(Nc1nncs1)(Oc1ccccc1)Oc1ccccc1
T/C (dose: 100.0 mg/kg/injection, schedule: Q01DX009 (ip), vehicle: carboxymethylcellulose (CMC)): 93 % of control | T/C (dose: 200.0 mg/kg/injection, schedule: Q01DX009 (ip), vehicle: carboxymethylcellulose (CMC)): 105 % of control | T/C (dose: 400.0 mg/kg/injection, schedule: Q01DX009 (ip), vehicle: carboxymethylcellulose (CMC)): 112 % of control

CCN(CCCl)CCOc1ccc([N+](=O)[O-])cc1
T/C (dose: 3.13 mg/kg/injection, schedule: Q01DX009 (ip), vehicle: saline): 98 % of control | T/C (dose: 6.25 mg/kg/injection, schedule: Q01DX009 (ip), vehicle: saline): 129 % of control | T/C (dose: 12.5 mg/kg/injection, schedule: Q01DX009 (ip), vehicle: saline with Tween-80): 97 % of control | survivor count [13]: 3 of 6 | survivor count (dose: 25.0 mg/kg/injection, schedule: Q01DX009 (ip), vehicle: saline with Tween-80): 2 of 6 | survivor count (dose: 50.0 mg/kg/injection, schedule: Q01DX009 (ip), vehicle: saline with Tween-80): 1 of 6

CC1C(c2ccccc2)OCCN1C (stereo not drawn)
T/C [13]: 88 % of control | T/C [14]: 90 % of control | T/C [15]: 105 % of control | T/C [16]: 97 % of control | T/C [17]: 113 % of control | T/C [21]: 101 % of control [5 of 6 alive] | T/C [18]: 103 % of control | T/C [22]: 95 % of control [4 of 6 alive] | T/C [19]: 97 % of control | survivor count [20]: 1 of 4

[O-]/[N+](=C/c1ccc(N(CCCl)CCCl)cc1)CCO
T/C [2]: 101 % of control | T/C [6]: 106 % of control | T/C [9]: 108 % of control
